Results are given in words; binding and its absence hold for the method and conditions named. In cells and extracts the contact can be indirect. Here binding means that the protein was enriched with, or labelled near, the bait; the list need not be complete. Tags and fused reporters may be left off the sequences shown.
How the values were obtained:
[1] = molecular target: T1, Ycf3 fused with HA-tag at the C-terminus (Ycf3-HA) (C. reinhardtii) (UniProt O20031); assay: affinity purification with mass spectrometry; affinity-purified Ycf3-HA preparation, gel bands digested with trypsin, LC-MS/MS
T1 sequence: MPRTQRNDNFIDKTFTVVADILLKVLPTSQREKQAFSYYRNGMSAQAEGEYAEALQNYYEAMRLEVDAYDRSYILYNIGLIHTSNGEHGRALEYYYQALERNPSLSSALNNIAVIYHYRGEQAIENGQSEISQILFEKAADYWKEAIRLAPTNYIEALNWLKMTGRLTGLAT

By UniProt entry, the sequences of proteins in these tests, tags left out.
UniProt P09144: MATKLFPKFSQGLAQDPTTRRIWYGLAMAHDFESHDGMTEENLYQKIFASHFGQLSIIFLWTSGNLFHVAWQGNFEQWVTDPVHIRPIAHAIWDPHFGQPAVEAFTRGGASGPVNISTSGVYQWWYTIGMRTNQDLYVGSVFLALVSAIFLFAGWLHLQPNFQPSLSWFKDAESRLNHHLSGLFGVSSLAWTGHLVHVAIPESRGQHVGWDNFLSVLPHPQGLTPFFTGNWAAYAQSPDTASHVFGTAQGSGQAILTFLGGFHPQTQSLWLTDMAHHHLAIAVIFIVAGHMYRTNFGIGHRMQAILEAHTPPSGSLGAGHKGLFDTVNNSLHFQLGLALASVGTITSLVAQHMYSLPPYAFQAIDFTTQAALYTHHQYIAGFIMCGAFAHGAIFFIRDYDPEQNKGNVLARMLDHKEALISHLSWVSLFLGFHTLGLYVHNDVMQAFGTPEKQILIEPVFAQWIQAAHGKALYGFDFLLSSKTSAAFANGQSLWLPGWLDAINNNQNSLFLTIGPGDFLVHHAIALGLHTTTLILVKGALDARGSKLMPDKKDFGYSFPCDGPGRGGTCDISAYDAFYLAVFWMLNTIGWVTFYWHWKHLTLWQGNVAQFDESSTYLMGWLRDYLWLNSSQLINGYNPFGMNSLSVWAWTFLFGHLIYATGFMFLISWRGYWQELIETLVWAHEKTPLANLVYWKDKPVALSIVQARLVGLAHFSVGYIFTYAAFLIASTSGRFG

[2] = molecular target: T2, Ycf4 fused with HA tag at the N-terminus (HA-Ycf4) (C. reinhardtii) (UniProt O20030); assay: affinity purification with mass spectrometry; affinity-purified HA-Ycf4 preparation, gel bands digested with trypsin, LC-MS/MS
T2 sequence: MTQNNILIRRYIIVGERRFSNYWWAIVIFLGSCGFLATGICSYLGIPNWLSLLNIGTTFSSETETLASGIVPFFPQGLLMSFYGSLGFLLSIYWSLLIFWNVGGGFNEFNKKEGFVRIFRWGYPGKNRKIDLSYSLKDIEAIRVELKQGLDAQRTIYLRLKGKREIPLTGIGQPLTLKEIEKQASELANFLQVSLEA

binding [1]: binds | binding [2]: binds
Substance: PsaB (from UniProt P09144 1-735)

— PMC6015050
